Measured data: PubChem BioAssay AID1259405 (NCATS, 2018)
Purpose: 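Knock-downs that lift recombinant protein yield in hamster ovary cells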 (primary screen). System: Chinese hamster CHO-K1 ovary cells with stable secreted eGFP expression. Knock-down reagent: single siRNA against mouse genes, 0.8 pmol siRNA per well (2 µl of 400 nM stock). Time to read-out: 3 days. Measurement: 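Percent of the per-plate non-targeting control median for intracellular GFP per well by laser scanning cytometry and for cell viability by ATP luminescence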. Reading the numbers: GFP, % of control: higher = more GFP per well, higher productivity; viability (ATP), % of control: higher = more viable cells (more ATP). Rule for the call: 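a knock-down is called active if GFP reaches 120% or more of non-targeting control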.
Shown is an unselected part of about 50,000 reagents. In the full data, about 4,000 (8%) were called active. 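Mouse siRNA library applied to hamster cells; one well for each siRNA.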 Reagents against one gene are numbered here. No sequences are given here.

Mcts1 (malignant T cell amplified sequence 1) #1: GFP, % of control = 90.3; viability (ATP), % of control = 112; call = inactive
Mcts1 (malignant T cell amplified sequence 1) #2: GFP, % of control = 73.6; viability (ATP), % of control = 94.6; call = inactive
Mcts1 (malignant T cell amplified sequence 1) #3: GFP, % of control = 53.1; viability (ATP), % of control = 33.1; call = inactive
3110070M22Rik (RIKEN cDNA 3110070M22 gene) #1: GFP, % of control = 107; viability (ATP), % of control = 95.9; call = inactive
3110070M22Rik (RIKEN cDNA 3110070M22 gene) #2: GFP, % of control = 136; viability (ATP), % of control = 109; call = active
3110070M22Rik (RIKEN cDNA 3110070M22 gene) #3: GFP, % of control = 78; viability (ATP), % of control = 128; call = inactive
Atp13a5 (ATPase type 13A5) #1: GFP, % of control = 84.9; viability (ATP), % of control = 82.4; call = inactive
Atp13a5 (ATPase type 13A5) #2: GFP, % of control = 68.9; viability (ATP), % of control = 77.7; call = inactive
Atp13a5 (ATPase type 13A5) #3: GFP, % of control = 49.5; viability (ATP), % of control = 69.8; call = inactive
Adipor2 (adiponectin receptor 2) #1: GFP, % of control = 100; viability (ATP), % of control = 85.2; call = inactive
Adipor2 (adiponectin receptor 2) #2: GFP, % of control = 47.3; viability (ATP), % of control = 50; call = inactive
Adipor2 (adiponectin receptor 2) #3: GFP, % of control = 99.1; viability (ATP), % of control = 75.9; call = inactive
Cobll1 (Cobl-like 1) #1: GFP, % of control = 69.2; viability (ATP), % of control = 78.8; call = inactive
Cobll1 (Cobl-like 1) #2: GFP, % of control = 111; viability (ATP), % of control = 76.3; call = inactive
Cobll1 (Cobl-like 1) #3: GFP, % of control = 89.9; viability (ATP), % of control = 100; call = inactive
Gm9991 (predicted gene 9991) #1: GFP, % of control = 69; viability (ATP), % of control = 68.5; call = inactive
Gm9991 (predicted gene 9991) #2: GFP, % of control = 98.2; viability (ATP), % of control = 55.5; call = inactive
Gm9991 (predicted gene 9991) #3: GFP, % of control = 118; viability (ATP), % of control = 45.3; call = inactive
Pi4k2b (phosphatidylinositol 4-kinase type 2 beta): GFP, % of control = 72.7; viability (ATP), % of control = 46.5; call = inactive
Klra10 (killer cell lectin-like receptor subfamily A, member 10) #1: GFP, % of control = 47.7; viability (ATP), % of control = 64.5; call = inactive
Klra10 (killer cell lectin-like receptor subfamily A, member 10) #2: GFP, % of control = 69.8; viability (ATP), % of control = 67.1; call = inactive
Klra10 (killer cell lectin-like receptor subfamily A, member 10) #3: GFP, % of control = 80.5; viability (ATP), % of control = 52.4; call = inactive
Zfp592 (zinc finger protein 592) #1: GFP, % of control = 63.1; viability (ATP), % of control = 54; call = inactive
Zfp592 (zinc finger protein 592) #2: GFP, % of control = 86.6; viability (ATP), % of control = 74.4; call = inactive
Zfp592 (zinc finger protein 592) #3: GFP, % of control = 98.9; viability (ATP), % of control = 96.3; call = inactive

Already shown: an excerpt of the list.
Zfp592 (zinc finger protein 592) #2: GFP, % of control = 86.6; viability (ATP), % of control = 74.4; call = inactive
Zfp592 (zinc finger protein 592) #3: GFP, % of control = 98.9; viability (ATP), % of control = 96.3; call = inactive

The list goes on.
Cnr1 (cannabinoid receptor 1) #1: GFP, % of control = 79.7; viability (ATP), % of control = 45.1; call = inactive
Cnr1 (cannabinoid receptor 1) #2: GFP, % of control = 66; viability (ATP), % of control = 72.4; call = inactive
Cnr1 (cannabinoid receptor 1) #3: GFP, % of control = 50.2; viability (ATP), % of control = 30.4; call = inactive
Dgke (diacylglycerol kinase, epsilon): GFP, % of control = 60; viability (ATP), % of control = 65.1; call = inactive
Chrdl1 (chordin-like 1) #1: GFP, % of control = 72.7; viability (ATP), % of control = 55.8; call = inactive
Chrdl1 (chordin-like 1) #2: GFP, % of control = 33.8; viability (ATP), % of control = 44.5; call = inactive
Chrdl1 (chordin-like 1) #3: GFP, % of control = 62.8; viability (ATP), % of control = 60.4; call = inactive
Rnf185 (ring finger protein 185) #1: GFP, % of control = 74; viability (ATP), % of control = 42.6; call = inactive
Rnf185 (ring finger protein 185) #2: GFP, % of control = 109; viability (ATP), % of control = 71.7; call = inactive
Klhl2 (kelch-like 2, Mayven) #1: GFP, % of control = 55.9; viability (ATP), % of control = 54; call = inactive
Klhl2 (kelch-like 2, Mayven) #2: GFP, % of control = 155; viability (ATP), % of control = 105; call = active
Zfp941 (zinc finger protein 941) #1: GFP, % of control = 46.8; viability (ATP), % of control = 63.4; call = inactive
Zfp941 (zinc finger protein 941) #2: GFP, % of control = 49.5; viability (ATP), % of control = 58.1; call = inactive
Zfp941 (zinc finger protein 941) #3: GFP, % of control = 113; viability (ATP), % of control = 114; call = inactive
Abcc10 (ATP-binding cassette, sub-family C member 10) #1: GFP, % of control = 113; viability (ATP), % of control = 113; call = inactive
Abcc10 (ATP-binding cassette, sub-family C member 10) #2: GFP, % of control = 63; viability (ATP), % of control = 57.1; call = inactive
Abcc10 (ATP-binding cassette, sub-family C member 10) #3: GFP, % of control = 64.2; viability (ATP), % of control = 82.2; call = inactive
